Results are given in words; binding and its absence hold for the method and conditions named. Binding seen in cells or lysates may run through a third protein. Here binding means that the protein was enriched with, or labelled near, the bait; the list need not be complete.
Assays:
HA-CUL4A = HA-CUL4A (UniProt Q13619); assay: affinity purification with mass spectrometry; HEK293T transfected with HA-CUL4A, X-rays (5 Gy) 48 h later, after 24 h enrichment with anti-HA antibody, SDS-PAGE, mass spectrometry (more than two peptides with IonScore > 20)
Flag-DTL = Flag-DTL (UniProt Q9NZJ0); assay: affinity purification with mass spectrometry; HEK293T transfected with Flag-DTL, X-rays (5 Gy) 48 h later, after 24 h enrichment with anti-Flag antibody, SDS-PAGE, mass spectrometry (more than two peptides with IonScore > 20)

Sequences of proteins named here, by UniProt entry; tags and fusion partners are left off.
UniProt Q13619: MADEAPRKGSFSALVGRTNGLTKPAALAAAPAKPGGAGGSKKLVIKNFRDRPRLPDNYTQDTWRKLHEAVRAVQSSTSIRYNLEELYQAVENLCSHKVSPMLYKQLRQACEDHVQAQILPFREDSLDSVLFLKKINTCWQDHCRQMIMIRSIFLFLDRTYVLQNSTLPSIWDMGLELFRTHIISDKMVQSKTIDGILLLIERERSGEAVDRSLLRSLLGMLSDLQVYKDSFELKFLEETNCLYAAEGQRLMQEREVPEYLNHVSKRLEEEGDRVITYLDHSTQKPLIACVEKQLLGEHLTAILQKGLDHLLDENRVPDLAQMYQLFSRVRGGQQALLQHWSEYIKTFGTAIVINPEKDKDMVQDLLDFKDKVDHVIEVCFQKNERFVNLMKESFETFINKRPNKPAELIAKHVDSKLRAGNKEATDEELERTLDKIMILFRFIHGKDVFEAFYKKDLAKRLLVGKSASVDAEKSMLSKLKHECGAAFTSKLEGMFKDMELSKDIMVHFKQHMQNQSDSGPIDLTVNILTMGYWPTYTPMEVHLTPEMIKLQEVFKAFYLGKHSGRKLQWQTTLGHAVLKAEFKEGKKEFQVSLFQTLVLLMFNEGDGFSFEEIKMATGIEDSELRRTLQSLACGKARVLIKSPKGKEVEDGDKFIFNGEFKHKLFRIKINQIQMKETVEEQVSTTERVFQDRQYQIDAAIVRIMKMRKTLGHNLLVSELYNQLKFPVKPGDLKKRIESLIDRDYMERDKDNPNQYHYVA
UniProt Q9NZJ0: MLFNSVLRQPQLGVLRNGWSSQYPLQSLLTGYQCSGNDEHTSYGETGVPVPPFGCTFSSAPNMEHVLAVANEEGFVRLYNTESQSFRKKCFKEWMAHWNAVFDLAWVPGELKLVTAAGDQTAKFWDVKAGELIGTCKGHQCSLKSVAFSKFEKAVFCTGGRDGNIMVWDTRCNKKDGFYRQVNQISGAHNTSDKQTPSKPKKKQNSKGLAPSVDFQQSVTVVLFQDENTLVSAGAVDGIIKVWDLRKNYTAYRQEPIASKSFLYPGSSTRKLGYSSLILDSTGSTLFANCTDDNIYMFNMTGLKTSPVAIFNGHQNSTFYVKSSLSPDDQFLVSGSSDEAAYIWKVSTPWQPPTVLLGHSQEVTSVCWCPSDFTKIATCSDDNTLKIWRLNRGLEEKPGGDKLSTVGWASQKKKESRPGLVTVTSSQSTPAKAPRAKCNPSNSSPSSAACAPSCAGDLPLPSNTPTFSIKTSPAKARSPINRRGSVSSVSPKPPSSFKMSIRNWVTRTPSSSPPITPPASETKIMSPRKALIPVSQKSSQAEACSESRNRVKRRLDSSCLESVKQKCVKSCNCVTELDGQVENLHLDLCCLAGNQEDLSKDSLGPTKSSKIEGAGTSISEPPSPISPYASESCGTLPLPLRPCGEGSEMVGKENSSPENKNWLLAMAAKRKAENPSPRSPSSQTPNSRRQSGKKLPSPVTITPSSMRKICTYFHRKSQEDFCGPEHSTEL
UniProt Q86VP6: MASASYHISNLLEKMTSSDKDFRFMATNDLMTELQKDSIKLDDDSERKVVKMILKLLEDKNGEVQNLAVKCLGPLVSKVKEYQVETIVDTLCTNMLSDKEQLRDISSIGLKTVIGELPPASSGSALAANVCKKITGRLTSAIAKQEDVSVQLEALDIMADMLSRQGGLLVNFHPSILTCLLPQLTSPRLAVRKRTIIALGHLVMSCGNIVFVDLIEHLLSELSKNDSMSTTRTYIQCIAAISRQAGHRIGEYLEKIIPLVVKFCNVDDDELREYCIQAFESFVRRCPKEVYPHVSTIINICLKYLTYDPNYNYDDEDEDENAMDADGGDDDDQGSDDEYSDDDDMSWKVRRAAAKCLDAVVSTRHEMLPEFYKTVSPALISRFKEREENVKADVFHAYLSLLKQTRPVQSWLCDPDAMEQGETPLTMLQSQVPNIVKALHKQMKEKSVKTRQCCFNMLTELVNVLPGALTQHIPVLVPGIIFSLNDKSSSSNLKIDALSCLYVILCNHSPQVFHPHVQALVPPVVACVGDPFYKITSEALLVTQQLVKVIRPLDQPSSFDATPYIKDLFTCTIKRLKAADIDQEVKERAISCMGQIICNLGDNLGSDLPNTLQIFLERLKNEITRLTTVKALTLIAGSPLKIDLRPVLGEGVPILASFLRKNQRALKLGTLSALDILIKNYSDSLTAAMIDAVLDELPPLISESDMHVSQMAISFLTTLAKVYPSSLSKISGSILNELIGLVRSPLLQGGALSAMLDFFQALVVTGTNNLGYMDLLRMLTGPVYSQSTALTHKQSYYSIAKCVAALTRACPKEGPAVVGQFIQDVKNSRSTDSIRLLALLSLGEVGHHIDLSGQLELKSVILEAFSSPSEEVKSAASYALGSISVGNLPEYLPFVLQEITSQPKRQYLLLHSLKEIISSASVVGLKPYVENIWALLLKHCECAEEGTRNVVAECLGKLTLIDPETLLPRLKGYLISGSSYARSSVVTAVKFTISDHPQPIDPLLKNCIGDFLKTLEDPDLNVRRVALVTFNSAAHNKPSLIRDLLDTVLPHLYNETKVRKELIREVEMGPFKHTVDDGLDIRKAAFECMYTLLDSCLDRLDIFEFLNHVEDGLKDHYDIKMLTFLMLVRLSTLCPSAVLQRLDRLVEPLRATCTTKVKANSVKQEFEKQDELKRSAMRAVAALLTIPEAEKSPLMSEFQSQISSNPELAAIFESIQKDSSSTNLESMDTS

## CAND1 (from UniProt Q86VP6 1-1230)
HA-CUL4A
  binding: binds

## CUL4A (endogenous) (from UniProt Q13619 1-759)
Flag-DTL
  binding: binds

## DNA-PKcs (from UniProt P78527 1-4128)
Flag-DTL
  binding: binds

## DTL (endogenous) (from UniProt Q9NZJ0 1-730)
HA-CUL4A
  binding: binds

Source: paper PMC7979543
